Laboratory results taken from PMC6246682, “Structural Basis of Tau Interaction With BIN1 and Regulation by Tau Phosphorylation” (Frontiers in Molecular Neuroscience, 2018).
Results are given in words; binding and its absence hold for the method and conditions named.

Target: T1, BIN1 SH3 domain, O00499
T1 chain: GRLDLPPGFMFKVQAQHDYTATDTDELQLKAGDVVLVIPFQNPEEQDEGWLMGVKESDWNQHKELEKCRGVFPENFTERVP
Assay: 15N NMR relaxation (R1, R2, correlation time); 15N-labeled BIN1 SH3 0.12 mM, alone and with Tau (210–240) at 1:8 molar ratio; 293K, 600 MHz; both purified
Settings: remark: other sources report otherwise

B1: BIN1 SH3 domain, O00499 513-593 (domain or fragment)
chain: T1 chain
  binding: no binding (tested: 0.12 mM)
